In US20090285898A1, “COMBINATION OF DEHYDROEPIANDROSTERONE OR DEHYDROEPIANDROSTERONE-SULFATE WITH AN ANTICHOLINERGIC BRONCHODILATOR FOR TREATMENT OF ASTHMA OR CHRONIC OBSTRUCTIVE PULMONARY DISEASE” (priority 2003, published 2009):
Values joined by “and” are separate entries in the source; they are usually repeats but may differ in a detail not shown here. Identical values can stand only once.

Tests used:
[1] = Emitted dose studies with dry powder inhalers; conditions: micronized drug, individual experiments
[2] = Respirable dose studies (Andersen cascade impactor); conditions: 90 L/min

Structure (SMILES): C[C@]12CC[C@H](OS(=O)(=O)[O-])CC1=CC[C@@H]1[C@@H]2CC[C@]2(C)C(=O)CC[C@@H]12.[Na+] [Anhydrous DHEA-S]
- Emitted Dose (%) ([1]; Rotahaler (2nd study), 87.8 L/min): 16.0% and 24.5% and 53.9%
- Emitted Dose (%) ([1]; Rotahaler, 30 L/min): 34.5% and 21.2% and 48.5%
- increase in the respirable dose, spray-dried compared to micronized anhydrous DHEA-S [2]: two-fold increase
